Source: PMC4788435 (2016)
These are yes or no findings as the source states them, for the method shown. In cells and extracts the contact can be indirect. Some binding calls cover weakened binding; strength is not graded here. Where a sequence is shown, tags or fusion partners need not be part of it.

Chains of the proteins cited; added tags and fusions are not shown.
UniProt P46937: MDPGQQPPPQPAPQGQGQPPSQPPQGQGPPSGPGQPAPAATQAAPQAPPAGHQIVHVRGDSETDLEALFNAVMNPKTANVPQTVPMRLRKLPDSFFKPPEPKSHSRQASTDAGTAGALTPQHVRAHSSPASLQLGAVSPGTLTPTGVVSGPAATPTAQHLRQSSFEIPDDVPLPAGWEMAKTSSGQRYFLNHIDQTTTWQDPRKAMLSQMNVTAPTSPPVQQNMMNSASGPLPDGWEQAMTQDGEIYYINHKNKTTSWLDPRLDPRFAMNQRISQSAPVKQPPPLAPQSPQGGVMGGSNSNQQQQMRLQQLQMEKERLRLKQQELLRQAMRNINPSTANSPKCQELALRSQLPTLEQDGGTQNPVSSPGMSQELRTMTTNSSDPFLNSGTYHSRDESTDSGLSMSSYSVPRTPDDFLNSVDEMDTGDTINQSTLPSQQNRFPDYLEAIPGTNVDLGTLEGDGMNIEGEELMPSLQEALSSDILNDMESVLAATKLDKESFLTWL

T1: human NEK8-GFP wild type (human) (UniProt Q86SG6)
T1 sequence: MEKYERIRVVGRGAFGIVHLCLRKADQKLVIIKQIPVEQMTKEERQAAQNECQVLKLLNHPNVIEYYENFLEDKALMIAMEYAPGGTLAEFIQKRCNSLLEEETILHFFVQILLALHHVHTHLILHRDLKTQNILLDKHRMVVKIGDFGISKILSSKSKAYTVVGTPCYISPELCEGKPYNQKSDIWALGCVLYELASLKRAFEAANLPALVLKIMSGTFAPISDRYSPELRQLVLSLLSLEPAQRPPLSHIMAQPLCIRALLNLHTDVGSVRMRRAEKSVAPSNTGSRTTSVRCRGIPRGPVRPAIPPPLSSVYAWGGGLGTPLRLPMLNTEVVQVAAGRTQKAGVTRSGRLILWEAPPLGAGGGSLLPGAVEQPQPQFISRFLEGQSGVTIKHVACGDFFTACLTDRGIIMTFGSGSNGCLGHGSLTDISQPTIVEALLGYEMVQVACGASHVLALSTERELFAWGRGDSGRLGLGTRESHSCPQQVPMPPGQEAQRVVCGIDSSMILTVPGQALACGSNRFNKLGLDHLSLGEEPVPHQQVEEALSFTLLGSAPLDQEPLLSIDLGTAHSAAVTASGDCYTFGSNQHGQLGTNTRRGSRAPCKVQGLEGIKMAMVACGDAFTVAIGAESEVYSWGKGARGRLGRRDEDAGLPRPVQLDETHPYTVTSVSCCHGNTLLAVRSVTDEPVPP


Tests used:
[1] = target: T1, human NEK8-GFP wild type (human); test: proximity ligation; in situ PLA (OLINK) on HEK293 cells co-expressing YAP-myc and NEK8-GFP WT, fixed 48 h after transfection; anti-rabbit GFP and anti-mouse Myc antibodies; probes within less than 40 nm give a signal; confocal microscopy
[2] = target: T1, human NEK8-GFP wild type (human); test: co-IP; lysates of HEK293T cells co-expressing GFP-tagged WT or mutant NEK8 and Flag-ANKS6; immunoprecipitated with an anti-GFP antibody (Miltenyi-Biotec beads protocol); western blot with GFP and Flag antibodies; Flag versus GFP band intensities quantified

binding [1] | binding [2] | Molecule
binds | – | YAP-myc (from UniProt P46937 1-504)
– | binds | Flag-ANKS6 (protein, UniProt Q68DC2-1 1-871) MGEGGLPPAFQLLLRACDQGDTETARRLLEPGAAEPAERGAEPEAGAEPAGAEVAGPGAAAAGAVGAPVPVDCSDEAGNTALQFAAAGGHEPLVRFLLRRGASVNSRNHYGWSALMQAARFGHVSVAHLLLDHGADVNAQNRLGASVLTVASRGGHLGVVKLLLEAGAFVDHHHPSGEQLGLGGSRDEPLDITALMAAIQHGHEAVVRLLMEWGADPNHAARTVGWSPLMLAALTGRLGVAQQLVEKGANPDHLSVLEKTAFEVALDCKHRDLVDYLDPLTTVRPKTDEEKRRPDIFHALKMGNFQLVKEIADEDPSHVNLVNGDGATPLMLAAVTGQLALVQLLVERHADVDKQDSVHGWTALMQATYHGNKEIVKYLLNQGADVTLRAKNGYTAFDLVMLLNDPDTELVRLLASVCMQVNKDKGRPSHQPPLPHSKVRQPWSIPVLPDDKGGLKSWWNRMSNRFRKLKLMQTLPRGLSSNQPLPFSDEPEPALDSTMRAAPQDKTSRSALPDAAPVTKDNGPGSTRGEKEDTLLTTMLRNGAPLTRLPSDKLKAVIPPFLPPSSFELWSSDRSRTRHNGKADPMKTALPQRASRGHPVGGGGTDTTPVRPVKFPSLPRSPASSANSGNFNHSPHSSGGSSGVGVSRHGGELLNRSGGSIDNVLSQIAAQRKKAAGLLEQKPSHRSSPVGPAPGSSPSELPASPAGGSAPVGKKLETSKRPPSGTSTTSKSTSPTLTPSPSPKGHTAESSVSSSSSHRQSKSSGGSSSGTITDEDELTGILKKLSLEKYQPIFEEQEVDMEAFLTLTDGDLKELGIKTDGSRQQILAAISELNAGKGRERQILQETIHNFHSSFESSASNTRAPGNSPCA
